Measured values from the supplement of paper PMC10849652.
This is one part of the list.

Chains of the proteins cited; added tags and fusions are not shown. Lines headed by an entry give the natural chain unless they say otherwise; changes in a name come on top.
UniProt O00488: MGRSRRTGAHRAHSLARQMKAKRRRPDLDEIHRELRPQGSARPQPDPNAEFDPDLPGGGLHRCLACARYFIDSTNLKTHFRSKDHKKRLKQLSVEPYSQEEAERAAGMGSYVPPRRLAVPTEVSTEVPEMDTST
UniProt Q86UK7: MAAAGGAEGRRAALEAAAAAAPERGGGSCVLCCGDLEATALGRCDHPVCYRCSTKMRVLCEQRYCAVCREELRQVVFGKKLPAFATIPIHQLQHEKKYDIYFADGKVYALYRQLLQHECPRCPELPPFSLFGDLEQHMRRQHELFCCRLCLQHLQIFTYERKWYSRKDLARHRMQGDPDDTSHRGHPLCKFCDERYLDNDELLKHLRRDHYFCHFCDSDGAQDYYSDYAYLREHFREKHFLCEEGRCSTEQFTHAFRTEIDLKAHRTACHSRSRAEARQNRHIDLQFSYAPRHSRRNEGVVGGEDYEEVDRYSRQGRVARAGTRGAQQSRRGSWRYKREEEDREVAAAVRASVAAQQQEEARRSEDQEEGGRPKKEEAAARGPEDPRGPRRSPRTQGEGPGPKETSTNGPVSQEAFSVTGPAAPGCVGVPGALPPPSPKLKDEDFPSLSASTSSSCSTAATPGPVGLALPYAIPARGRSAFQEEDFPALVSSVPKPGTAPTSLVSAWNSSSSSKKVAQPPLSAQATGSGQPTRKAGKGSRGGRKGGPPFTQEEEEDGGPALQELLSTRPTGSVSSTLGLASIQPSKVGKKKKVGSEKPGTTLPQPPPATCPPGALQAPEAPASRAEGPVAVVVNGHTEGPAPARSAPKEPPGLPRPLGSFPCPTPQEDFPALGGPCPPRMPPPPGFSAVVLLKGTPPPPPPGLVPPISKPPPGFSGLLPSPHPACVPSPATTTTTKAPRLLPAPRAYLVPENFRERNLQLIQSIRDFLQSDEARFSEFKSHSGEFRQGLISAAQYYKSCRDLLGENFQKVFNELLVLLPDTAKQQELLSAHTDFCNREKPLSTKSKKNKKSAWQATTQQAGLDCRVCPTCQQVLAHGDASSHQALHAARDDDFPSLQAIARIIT
UniProt O15014: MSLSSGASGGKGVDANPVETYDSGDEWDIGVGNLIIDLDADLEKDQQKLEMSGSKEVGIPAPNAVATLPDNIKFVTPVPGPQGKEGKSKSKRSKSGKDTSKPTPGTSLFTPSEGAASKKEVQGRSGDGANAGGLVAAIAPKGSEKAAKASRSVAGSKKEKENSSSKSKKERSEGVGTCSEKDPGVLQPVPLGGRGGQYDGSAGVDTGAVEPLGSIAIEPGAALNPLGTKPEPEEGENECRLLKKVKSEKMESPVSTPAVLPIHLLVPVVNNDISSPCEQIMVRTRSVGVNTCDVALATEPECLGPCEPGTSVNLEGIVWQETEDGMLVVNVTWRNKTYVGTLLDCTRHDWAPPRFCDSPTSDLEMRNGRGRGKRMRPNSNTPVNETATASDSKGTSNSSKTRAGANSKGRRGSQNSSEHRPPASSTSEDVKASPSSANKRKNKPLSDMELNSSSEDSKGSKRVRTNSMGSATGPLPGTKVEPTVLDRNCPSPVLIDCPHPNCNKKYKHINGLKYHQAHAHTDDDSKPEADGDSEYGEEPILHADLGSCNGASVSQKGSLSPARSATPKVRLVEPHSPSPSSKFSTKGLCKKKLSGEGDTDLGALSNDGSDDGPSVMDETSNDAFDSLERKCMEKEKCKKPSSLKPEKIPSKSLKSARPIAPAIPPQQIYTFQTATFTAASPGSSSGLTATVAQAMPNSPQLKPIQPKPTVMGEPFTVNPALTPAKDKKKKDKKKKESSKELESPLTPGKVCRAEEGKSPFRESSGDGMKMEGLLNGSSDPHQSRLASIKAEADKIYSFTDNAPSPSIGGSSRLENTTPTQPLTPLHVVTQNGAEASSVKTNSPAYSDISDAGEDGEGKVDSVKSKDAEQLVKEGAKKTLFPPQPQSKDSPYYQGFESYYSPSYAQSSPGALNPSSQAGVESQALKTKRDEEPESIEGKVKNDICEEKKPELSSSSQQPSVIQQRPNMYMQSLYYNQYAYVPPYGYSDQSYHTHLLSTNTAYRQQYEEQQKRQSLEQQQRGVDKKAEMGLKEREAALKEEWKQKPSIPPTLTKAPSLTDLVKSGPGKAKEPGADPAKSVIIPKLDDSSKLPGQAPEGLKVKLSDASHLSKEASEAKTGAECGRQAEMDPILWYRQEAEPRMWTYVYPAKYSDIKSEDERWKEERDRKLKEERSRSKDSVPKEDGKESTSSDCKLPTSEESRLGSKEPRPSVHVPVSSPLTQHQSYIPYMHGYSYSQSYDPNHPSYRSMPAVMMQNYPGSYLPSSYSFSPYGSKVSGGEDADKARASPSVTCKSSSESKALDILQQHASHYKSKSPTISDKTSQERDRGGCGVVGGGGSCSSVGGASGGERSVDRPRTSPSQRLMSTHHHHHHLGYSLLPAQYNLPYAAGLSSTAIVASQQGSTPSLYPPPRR
UniProt Q5T7W0: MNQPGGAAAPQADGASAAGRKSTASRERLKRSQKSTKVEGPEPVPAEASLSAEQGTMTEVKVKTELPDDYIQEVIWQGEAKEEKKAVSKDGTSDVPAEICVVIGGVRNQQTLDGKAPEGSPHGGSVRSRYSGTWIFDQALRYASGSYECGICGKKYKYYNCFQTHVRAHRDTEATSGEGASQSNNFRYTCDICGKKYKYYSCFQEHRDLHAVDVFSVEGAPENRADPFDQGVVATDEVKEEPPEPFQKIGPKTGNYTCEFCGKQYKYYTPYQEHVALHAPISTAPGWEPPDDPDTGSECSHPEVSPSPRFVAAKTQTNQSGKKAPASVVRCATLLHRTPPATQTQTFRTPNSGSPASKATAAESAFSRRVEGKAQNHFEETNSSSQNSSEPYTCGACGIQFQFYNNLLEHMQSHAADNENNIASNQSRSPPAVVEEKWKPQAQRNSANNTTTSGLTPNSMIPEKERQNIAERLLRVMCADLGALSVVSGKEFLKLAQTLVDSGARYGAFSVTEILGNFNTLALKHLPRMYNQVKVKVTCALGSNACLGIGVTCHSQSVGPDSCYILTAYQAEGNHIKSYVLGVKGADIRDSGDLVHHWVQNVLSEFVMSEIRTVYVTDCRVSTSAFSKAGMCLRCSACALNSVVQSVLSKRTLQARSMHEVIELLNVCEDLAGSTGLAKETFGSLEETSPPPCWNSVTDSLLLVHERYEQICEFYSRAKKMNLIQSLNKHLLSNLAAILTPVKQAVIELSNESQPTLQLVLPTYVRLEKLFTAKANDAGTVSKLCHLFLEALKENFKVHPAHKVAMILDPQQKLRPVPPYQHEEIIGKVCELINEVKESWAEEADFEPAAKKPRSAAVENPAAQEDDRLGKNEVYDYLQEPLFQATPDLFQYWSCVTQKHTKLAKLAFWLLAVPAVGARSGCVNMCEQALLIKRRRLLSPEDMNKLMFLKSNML
UniProt Q9UEG4: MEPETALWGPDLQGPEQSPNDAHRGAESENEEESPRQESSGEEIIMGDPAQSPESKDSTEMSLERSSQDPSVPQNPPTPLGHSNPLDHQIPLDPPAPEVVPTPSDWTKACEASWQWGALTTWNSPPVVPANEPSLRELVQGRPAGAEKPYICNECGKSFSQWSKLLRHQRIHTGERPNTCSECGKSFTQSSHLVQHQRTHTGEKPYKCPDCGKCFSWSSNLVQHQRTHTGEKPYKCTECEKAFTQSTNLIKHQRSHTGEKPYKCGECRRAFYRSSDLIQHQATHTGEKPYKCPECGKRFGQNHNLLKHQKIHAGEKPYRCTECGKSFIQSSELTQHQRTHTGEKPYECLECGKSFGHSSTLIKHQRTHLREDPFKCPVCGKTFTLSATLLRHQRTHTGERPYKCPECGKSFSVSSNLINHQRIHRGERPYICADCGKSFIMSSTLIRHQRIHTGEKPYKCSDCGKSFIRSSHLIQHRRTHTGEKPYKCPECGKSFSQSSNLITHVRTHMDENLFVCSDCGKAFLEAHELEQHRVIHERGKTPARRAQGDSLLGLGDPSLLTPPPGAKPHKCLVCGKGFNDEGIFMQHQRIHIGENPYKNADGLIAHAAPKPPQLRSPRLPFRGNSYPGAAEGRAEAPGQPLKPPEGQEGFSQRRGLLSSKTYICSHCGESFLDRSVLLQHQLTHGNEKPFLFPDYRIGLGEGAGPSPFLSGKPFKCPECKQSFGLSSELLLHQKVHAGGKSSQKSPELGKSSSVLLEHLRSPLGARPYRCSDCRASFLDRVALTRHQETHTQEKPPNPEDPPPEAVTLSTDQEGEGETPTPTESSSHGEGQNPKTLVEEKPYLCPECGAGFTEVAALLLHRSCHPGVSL
UniProt Q14966: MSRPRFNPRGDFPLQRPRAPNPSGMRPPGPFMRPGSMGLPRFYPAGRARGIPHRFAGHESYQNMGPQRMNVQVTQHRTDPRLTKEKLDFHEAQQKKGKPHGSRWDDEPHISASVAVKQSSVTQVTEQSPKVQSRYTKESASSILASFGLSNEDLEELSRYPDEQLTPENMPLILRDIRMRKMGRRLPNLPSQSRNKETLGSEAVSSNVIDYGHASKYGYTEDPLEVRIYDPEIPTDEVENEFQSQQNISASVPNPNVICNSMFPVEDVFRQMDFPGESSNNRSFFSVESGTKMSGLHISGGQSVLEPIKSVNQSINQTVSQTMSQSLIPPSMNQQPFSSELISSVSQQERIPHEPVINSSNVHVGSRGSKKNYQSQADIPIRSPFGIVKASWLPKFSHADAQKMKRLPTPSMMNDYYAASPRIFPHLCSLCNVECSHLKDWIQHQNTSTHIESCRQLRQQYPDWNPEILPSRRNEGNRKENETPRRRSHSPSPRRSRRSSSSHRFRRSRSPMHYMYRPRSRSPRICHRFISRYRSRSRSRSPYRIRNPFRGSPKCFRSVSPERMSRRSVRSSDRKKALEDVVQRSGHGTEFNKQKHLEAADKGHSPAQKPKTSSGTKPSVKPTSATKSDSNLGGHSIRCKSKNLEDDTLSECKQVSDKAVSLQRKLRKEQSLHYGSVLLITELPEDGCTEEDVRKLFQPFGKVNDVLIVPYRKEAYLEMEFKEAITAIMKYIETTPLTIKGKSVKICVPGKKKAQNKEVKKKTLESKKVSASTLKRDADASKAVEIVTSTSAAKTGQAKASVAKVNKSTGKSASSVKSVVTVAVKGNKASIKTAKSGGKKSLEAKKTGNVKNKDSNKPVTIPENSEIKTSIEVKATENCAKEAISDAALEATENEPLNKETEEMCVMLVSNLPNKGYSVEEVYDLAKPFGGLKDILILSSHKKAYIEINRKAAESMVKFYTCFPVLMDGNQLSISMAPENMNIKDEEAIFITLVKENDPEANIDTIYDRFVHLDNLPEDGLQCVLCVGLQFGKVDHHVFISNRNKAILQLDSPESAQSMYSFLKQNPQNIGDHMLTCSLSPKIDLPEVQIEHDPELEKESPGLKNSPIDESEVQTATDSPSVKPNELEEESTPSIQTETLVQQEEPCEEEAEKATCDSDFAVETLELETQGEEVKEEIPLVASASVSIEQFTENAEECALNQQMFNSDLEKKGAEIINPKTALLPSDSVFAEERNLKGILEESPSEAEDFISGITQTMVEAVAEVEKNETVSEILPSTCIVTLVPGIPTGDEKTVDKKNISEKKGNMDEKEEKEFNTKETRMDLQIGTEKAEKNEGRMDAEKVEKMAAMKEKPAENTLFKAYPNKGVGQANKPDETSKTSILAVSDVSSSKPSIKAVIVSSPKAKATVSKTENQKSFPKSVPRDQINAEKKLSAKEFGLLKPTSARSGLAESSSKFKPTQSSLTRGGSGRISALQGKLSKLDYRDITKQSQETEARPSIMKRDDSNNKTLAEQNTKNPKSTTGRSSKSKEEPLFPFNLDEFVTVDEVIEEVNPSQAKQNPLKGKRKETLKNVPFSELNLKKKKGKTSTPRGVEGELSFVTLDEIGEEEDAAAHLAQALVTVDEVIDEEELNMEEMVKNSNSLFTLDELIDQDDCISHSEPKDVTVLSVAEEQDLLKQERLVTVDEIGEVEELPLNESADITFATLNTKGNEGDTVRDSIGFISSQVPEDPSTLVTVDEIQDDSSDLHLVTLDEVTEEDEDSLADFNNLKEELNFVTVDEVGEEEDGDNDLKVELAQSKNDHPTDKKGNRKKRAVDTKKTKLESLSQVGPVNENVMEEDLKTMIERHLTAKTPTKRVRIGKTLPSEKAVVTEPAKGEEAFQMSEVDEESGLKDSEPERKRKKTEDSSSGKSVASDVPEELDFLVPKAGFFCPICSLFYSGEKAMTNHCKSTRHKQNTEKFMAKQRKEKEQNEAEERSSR

What was measured:
Assay in all cases: log2 fold change, soluble protein after heating vs DMSO (PISA); higher = thermal stabilisation; K562 cells, 10 uM, 30 min; active = over 0.2 and 3.5 SD of the protein, either way, in both replicates (recomputed)
ZNF593 = ZNF593 (UniProt O00488)
How it was run: (§1)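 Soluble protein was defined as the supernatant after 21,000xg for 90 min. It came from K562 cells at 2×10^6 cells/mL given 10 μM compound for 30 min, heated in aliquots for 3 min across 48°C-58°C, pooled, and extracted in PBS with 0.5% NP-40 at 4°C, and was quantified by TMTpro 16plex LC-MS/MS with equalised channel sums. Thermal stability against control samples, from duplicates, is reported as log2 fold change.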

ZNF598 = ZNF598 (UniProt Q86UK7)
How it was run: as §1

ZNF609 = ZNF609 (UniProt O15014)
How it was run: as §1

ZNF618 [1] = target: ZNF618 (UniProt B1ALC2)
How it was run: as §1

ZNF618 [2] = target: ZNF618 (UniProt Q5T7W0)
How it was run: as §1

ZNF622 = ZNF622 (UniProt Q969S3)
How it was run: as §1

ZNF629 = ZNF629 (UniProt Q9UEG4)
How it was run: as §1

ZNF638 = ZNF638 (UniProt Q14966)
How it was run: as §1

ZNF639 = ZNF639 (UniProt Q9UID6)
How it was run: as §1

ZNF618 isoform 2 = ZNF618 isoform 2 (UniProt Q5T7W0)
How it was run: as §1

Measured: log2 fold change

CN1CCC(CNc2ccc3ncc(-c4cccc(OC(F)(F)F)c4)n3n2)CC1
inactive: ZNF593 = 0.201 | ZNF598 = -0.152 | ZNF609 = -0.134 | ZNF618 [1] 0.044 | ZNF618 [2] -0.105 | ZNF622 = 0.03 | ZNF629 = 0.177 | ZNF638 = 0.046 | ZNF639 = -0.391

Cc1ncc(-c2ccnc(Nc3ccc(S(C)(=O)=O)cc3)n2)n1C(C)C
inactive: ZNF593 = -0.115 | ZNF598 = -0.03 | ZNF609 = -0.102 | ZNF618 [1] -0.047 | ZNF618 [2] -0.035 | ZNF622 = 0.013 | ZNF629 = -0.125

CCN(CCCOc1ccc2c(Nc3cc(CC(=O)Nc4cccc(F)c4)[nH]n3)ncnc2c1)CCOP(=O)(O)O [barasertib]
inactive: ZNF593 = -0.122 | ZNF598 = 0.039 | ZNF609 = 0.039 | ZNF618 [1] 0 | ZNF618 [2] 0.046 | ZNF618 isoform 2 = -0.059 | ZNF622 = -0.001 | ZNF629 = -0.203 | ZNF638 = -0.063

Cc1cc(Nc2cc(CN3CCOCC3)c3nc(C)c(Cc4ccc(Cl)cc4F)n3n2)n[nH]1 [gandotinib]
inactive: ZNF593 = 0.202 | ZNF598 = -0.104 | ZNF609 = -0.073 | ZNF618 [1] 0.162 | ZNF618 [2] -0.005 | ZNF622 = 0.075 | ZNF629 = 0.076 | ZNF638 = -0.04 | ZNF639 = -0.207

C[C@@H](N)c1ccc(C(=O)Nc2ccnc3[nH]ccc23)cc1
inactive: ZNF593 = 0.339 | ZNF598 = 0.049 | ZNF609 = 0.033 | ZNF618 [1] -0.319 | ZNF618 [2] -0.001 | ZNF622 = 0 | ZNF629 = 0.257 | ZNF638 = -0.053

Cc1cccc(-c2[nH]c(C(C)(C)C)nc2-c2ccc3nccnc3c2)n1
inactive: ZNF593 = -0.117 | ZNF598 = -0.021 | ZNF609 = 0.014 | ZNF618 [1] 0.055 | ZNF618 [2] 0 | ZNF622 = 0.008 | ZNF629 = -0.118 | ZNF638 = 0.009 | ZNF639 = -0.162

COc1cc(Nc2ncc3c(n2)-c2ccc(Cl)cc2C(c2c(F)cccc2OC)=NC3)ccc1C(=O)O [alisertib]
inactive: ZNF593 = -0.064 | ZNF598 = -0.024 | ZNF609 = -0.021 | ZNF618 [1] 0.127 | ZNF618 [2] 0.246 | ZNF618 isoform 2 = 0.044 | ZNF622 = -0.028 | ZNF629 = -0.046 | ZNF638 = -0.031

O=C1NC(=O)/C(=C\c2ccc3nccnc3c2)S1
inactive: ZNF593 = -0.023 | ZNF598 = 0 | ZNF609 = -0.006 | ZNF618 [1] 0.132 | ZNF618 [2] 0 | ZNF618 isoform 2 = 0.017 | ZNF622 = -0.004 | ZNF629 = -0.057 | ZNF638 = -0.039

CS(=O)(=O)N1CCN(Cc2cc3nc(-c4cccc5[nH]ncc45)nc(N4CCOCC4)c3s2)CC1 [pictilisib]
inactive: ZNF593 = -0.14 | ZNF598 = -0.042 | ZNF609 = 0.107 | ZNF618 [1] -0.048 | ZNF618 [2] 0.069 | ZNF622 = 0.144 | ZNF629 = 0.226 | ZNF638 = -0.066 | ZNF639 = 0.058

Cc1cccc(CC(=O)N2CCc3c2ccc(-c2cn(C)c4ncnc(N)c24)c3F)n1
inactive: ZNF593 = -0.055 | ZNF598 = 0.091 | ZNF609 = -0.22 | ZNF618 [1] -0.068 | ZNF618 [2] -0.034 | ZNF622 = -0.019 | ZNF629 = -0.026 | ZNF638 = -0.002 | ZNF639 = -0.001

Cc1nc(Nc2n[nH]c3c2CN(C(=O)N[C@H](CN(C)C)c2ccccc2)C3(C)C)c2sccc2n1
inactive: ZNF593 = 0.082 | ZNF598 = -0.1 | ZNF609 = -0.018 | ZNF618 [1] 0.059 | ZNF618 [2] -0.041 | ZNF622 = 0.091 | ZNF629 = -0.166

CC[C@H](C)n1cc(C)c2c(C(=O)NCc3c(C)cc(C)[nH]c3=O)cc(-c3ccc(N4CCNCC4)nc3)cc21
inactive: ZNF593 = -0.003 | ZNF598 = 0.068 | ZNF609 = 0.076 | ZNF618 [1] 0.02 | ZNF618 [2] -0.033 | ZNF622 = -0.012 | ZNF629 = -0.293

FC(F)(F)c1ccc(/C=C/c2nc(COc3ccc(CCCCn4ccnn4)cc3)co2)cc1 [mubritinib]
inactive: ZNF593 = -0.133 | ZNF598 = 0.044 | ZNF609 = 0.019 | ZNF618 [1] 0.313 | ZNF618 [2] -0.005 | ZNF618 isoform 2 = -0.106 | ZNF622 = 0.004 | ZNF629 = -0.133 | ZNF638 = 0.134

COc1ccc(Cn2ccc3ccc(C(=O)NO)cc32)cc1
inactive: ZNF593 = -0.186 | ZNF598 = 0.076 | ZNF609 = -0.034 | ZNF618 [1] 0.002 | ZNF618 [2] -0.002 | ZNF622 = -0.033 | ZNF629 = -0.06 | ZNF638 = 0.018 | ZNF639 = -0.155

CCn1cc(-c2ccnc3[nH]c(-c4cccc(CN(C)C)c4)cc23)c(-c2ccc(NC(=O)N(C)C)cc2)n1
inactive: ZNF593 = 0.153 | ZNF598 = -0.033 | ZNF609 = 0.097 | ZNF618 [1] -0.094 | ZNF618 [2] 0.068 | ZNF622 = -0.077 | ZNF629 = -0.004 | ZNF638 = 0.102 | ZNF639 = -0.149

Cc1ccc(NC(=O)c2ccc(CN3CC[C@H](N(C)C)C3)c(C(F)(F)F)c2)cc1Nc1nccc(-c2cncnc2)n1 [bafetinib]
inactive: ZNF593 = 0.142 | ZNF598 = 0.001 | ZNF609 = -0.233 | ZNF618 [1] -0.221 | ZNF618 [2] -0.093 | ZNF618 isoform 2 = 0.017 | ZNF622 = 0.021 | ZNF629 = 0.151 | ZNF638 = -0.023

O=C(O)c1ccc2c(c1)nc(Nc1cccc(Cl)c1)c1ccncc12 [silmitasertib]
inactive: ZNF593 = 0.041 | ZNF598 = 0.007 | ZNF609 = 0.02 | ZNF618 [1] 0.153 | ZNF618 [2] -0.004 | ZNF618 isoform 2 = -0.087 | ZNF622 = -0.058 | ZNF629 = 0.124 | ZNF638 = 0.003

CCCc1cc(C)[nH]c(=O)c1CNC(=O)c1cc(-c2ccnc(N3CCN(C)CC3)c2)cc2c1cnn2C(C)C
inactive: ZNF593 = 0.06 | ZNF598 = 0.027 | ZNF609 = -0.003 | ZNF618 [1] -0.34 | ZNF618 [2] -0.024 | ZNF618 isoform 2 = 0.042 | ZNF622 = -0.01 | ZNF629 = 0.173 | ZNF638 = -0.248

NC1(c2ccc(-c3nc4ccn5c(=O)[nH]nc5c4cc3-c3ccccc3)cc2)CCC1
inactive: ZNF593 = 0.254 | ZNF598 = -0.05 | ZNF609 = 0.018 | ZNF618 [1] -0.041 | ZNF618 [2] -0.039 | ZNF618 isoform 2 = 0.105 | ZNF622 = -0.019 | ZNF629 = 0.186 | ZNF638 = 0.18

For convenience, two of the compounds above:
COc1cc(Nc2ncc3c(n2)-c2ccc(Cl)cc2C(c2c(F)cccc2OC)=NC3)ccc1C(=O)O [alisertib]
inactive: ZNF593 = -0.064 | ZNF598 = -0.024 | ZNF609 = -0.021 | ZNF618 [1] 0.127 | ZNF618 [2] 0.246 | ZNF618 isoform 2 = 0.044 | ZNF622 = -0.028 | ZNF629 = -0.046 | ZNF638 = -0.031

O=C1NC(=O)/C(=C\c2ccc3nccnc3c2)S1
inactive: ZNF593 = -0.023 | ZNF598 = 0 | ZNF609 = -0.006 | ZNF618 [1] 0.132 | ZNF618 [2] 0 | ZNF618 isoform 2 = 0.017 | ZNF622 = -0.004 | ZNF629 = -0.057 | ZNF638 = -0.039

Next part.

Cc1ccc(-n2nc(C(C)(C)C)cc2NC(=O)Nc2ccc(OCCN3CCOCC3)c3ccccc23)cc1 [doramapimod]
inactive: ZNF593 = 0.193 | ZNF598 = 0.035 | ZNF609 = 0.036 | ZNF618 [1] 0.076 | ZNF618 [2] -0.043 | ZNF622 = 0.009 | ZNF629 = 0.29 | ZNF638 = 0.053 | ZNF639 = 0.071

CC(C)N(C[C@H]1O[C@@H](n2cnc3c(N)ncnc32)[C@H](O)[C@@H]1O)[C@H]1C[C@@H](CCc2nc3cc(C(C)(C)C)ccc3[nH]2)C1 [pinometostat]
inactive: ZNF593 = 0.293 | ZNF598 = 0 | ZNF609 = 0.03 | ZNF618 [1] -0.028 | ZNF618 [2] -0.019 | ZNF622 = 0.014 | ZNF629 = 0.234 | ZNF638 = 0.018 | ZNF639 = 0.127

C[C@@H](Oc1cc(-c2cnn(C3CCNCC3)c2)cnc1N)c1c(Cl)ccc(F)c1Cl [crizotinib]
inactive: ZNF593 = 0.067 | ZNF598 = -0.133 | ZNF609 = -0.113 | ZNF618 [1] 0.042 | ZNF618 [2] -0.02 | ZNF622 = -0.029 | ZNF629 = -0.004 | ZNF638 = -0.048 | ZNF639 = 0.219

COc1cccc2cc(-c3nc([C@H]4CC[C@H](C(=O)O)CC4)n4ncnc(N)c34)[nH]c12
inactive: ZNF593 = 0.008 | ZNF598 = -0.024 | ZNF609 = -0.028 | ZNF618 [1] 0.016 | ZNF618 [2] 0.034 | ZNF618 isoform 2 = 0.061 | ZNF622 = 0.01 | ZNF629 = -0.213 | ZNF638 = 0.104

O=C(Nc1nc2ccccc2n1CCN1CCOCC1)c1cccc([N+](=O)[O-])c1 [IRAK-1-4 Inhibitor I]
inactive: ZNF593 = -0.151 | ZNF598 = -0.038 | ZNF609 = -0.031 | ZNF618 [1] -0.029 | ZNF618 [2] 0.023 | ZNF622 = 0.004 | ZNF629 = -0.026 | ZNF638 = -0.036 | ZNF639 = -0.224

C=CC(=O)N1CCC[C@@H](n2nc(-c3ccc(Oc4ccccc4)cc3)c3c(N)ncnc32)C1 [ibrutinib]
inactive: ZNF593 = 0.061 | ZNF598 = -0.019 | ZNF609 = -0.024 | ZNF618 [1] -0.033 | ZNF618 [2] 0.004 | ZNF618 isoform 2 = -0.003 | ZNF622 = -0.003 | ZNF629 = -0.049 | ZNF638 = 0.023

CO[C@H]1C[C@@H]2CC[C@@H](C)[C@@](O)(O2)C(=O)C(=O)N2CCCC[C@H]2C(=O)O[C@H]([C@H](C)C[C@@H]2CC[C@H](n3cnnn3)[C@H](OC)C2)CC(=O)[C@H](C)/C=C(\C)[C@@H](O)[C@@H](OC)C(=O)[C@H](C)C[C@H](C)/C=C/C=C/C=C/1C [zotarolimus]
inactive: ZNF593 = 0.111 | ZNF598 = 0.016 | ZNF609 = -0.008 | ZNF618 [1] -0.155 | ZNF618 [2] -0.034 | ZNF622 = -0.017 | ZNF629 = -0.024 | ZNF638 = 0.018
